From publication PMC8072890, “Aminoalkylamides of Eremomycin Exhibit an Improved Antibacterial Activity” (Pharmaceuticals, 2021) come the findings set out here.

In the experiment the test system is S. pneumoniae ATCC 6305. The experiment is classed as cell-based. The following applies: sensitive strain; broth dilution micromethod, CLSI; modal values (or range) of 3–5 independent tests. The source says: The antimicrobial activity of semisynthetic derivatives of eremomycin 4a–q was studied in comparison with vancomycin on a wide panel of Gram-positive bacteria sensitive (Staphylococcus aureus ATCC 29213, S. aureus R-2, S. haemoliticus 602, S. pneumoniae ATCC 6305, Enteroccus faecium 4, and E. faecalis 559) and resistant to vancomycin (S. aureus 3797, S.aureus 3798, E. faecium 2, E. faecium 3576, E. faecalis 9, E. faecalis 583, and E. gallinarum BΠ 4147), information about the strains given in Table S3. The minimum microbial inhibitory concentration (MIC) for the test compounds was determined by the broth dilution micromethod according to CLSI guidelines, and vancomycin and a standard strain S. aureus ATCC 29213 used as controls (Figure 2 and Tables S4 and S5).
Table S4. Antibacterial activity of vancomycin and derivatives 4a–q against sensitive Gram-positive bacteria.
Strain/MIC (Minimum inhibitory concentration, μg/ml)*
Compound m n R S.aureus АТСС S.aureus R-2 S.haemoliticus S.pneumoniae АТСС E. faecium 4 E. faecalis 559
*MICs are presented as modal values for 3–5 independently replicated MIC tests for each strain and for the antibiotics. In the range of the
obtained MIC values, the obtained modal values are highlighted in bold.
(In general: In broth dilution the organism is exposed to a series of concentrations in liquid medium.)

`CN[C@H](CC(C)C)C(=O)N[C@H]1C(=O)N[C@@H](CC(N)=O)C(=O)N[C@H]2C(=O)N[C@H]3C(=O)N[C@H](C(=O)N[C@H](C(=O)O)c4cc(O)cc(O)c4-c4cc3ccc4O)[C@H](O)c3ccc(c(Cl)c3)Oc3cc2cc(c3O[C@@H]2O[C@H](CO)[C@@H](O)[C@H](O)[C@H]2O[C@H]2C[C@](C)(N)[C@H](O)[C@H](C)O2)Oc2ccc(cc2Cl)[C@H]1O` [Vancomycin, vancomycin, reference compound]: the “MIC S.pneumoniae ATCC 6305” value was 0,25 μg/ml.
